Experimental data from PubChem BioAssay AID256 (DTP/NCI, 2004).
The list does not hold the whole screen: it gathers tests that were run many times, whatever their T/C, doses with no T/C, and many T/C values between a quarter and a half above the control. Other doses and runs of a compound stand elsewhere. T/C is the treated group as % of the vehicle group. Some doses have a count of surviving animals in place of a T/C: the source holds a T/C of zero for them, seemingly a mark for toxic or unscored doses. Some doses without a T/C left all or most animals alive at the check, yet need not have been tolerated: the source hardly ever lists a survival T/C far under the control, and the zero likely stands for such cases as well. Survivors were counted at the toxicity check, usually on the fifth day, unless a day is given; later deaths do not show. Schedules are NCI's codes, read here as Q, the interval in days (D) or hours (H), X, the number of doses. Some doses were run more than once; the results are listed from low to high. Some molecules as drawn cover several salts, stereoisomers or complexes of the source; a dose is that of the sample tested. Where survival is the endpoint, the PubChem record calls one and a half times the control and up active, and a quarter to a half above the control has no call in these data; cut-offs in other NCI protocols can differ. Some T/C values are followed by the survivors on the day toxicity was checked, most often the fifth; where none is given, no animal had died by that day.

Test system: CD2F1 mice, L1210 leukemia ip, survival T/C
Assay: NCI In Vivo Anticancer Drug Screen. Data for tumor model L1210 Leukemia (intraperitoneal) in CD2F1 (CDF1) mice
Details: higher T/C = longer survival
Method in brief: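 Tumor-bearing mice (transplanted tumor) were split into treated and vehicle control groups, and the measured endpoint of each treated group was divided by that of its vehicle controls.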

[1] = T/C endpoint: mean survival time, dose: 400.0 mg/kg/injection, schedule: Q04DX002 (ip), vehicle: saline with Tween-80
[2] = T/C endpoint: mean survival time, dose: 400.0 mg/kg/injection, schedule: Q04DX003 (ip), vehicle: saline with Tween-80
[3] = T/C endpoint: mean survival time, dose: 400.0 mg/kg/injection, schedule: Q01DX009 (ip), vehicle: saline
[4] = T/C endpoint: mean survival time, dose: 200.0 mg/kg/injection, schedule: Q04DX003 (ip), vehicle: saline with Tween-80
[5] = T/C endpoint: mean survival time, dose: 400.0 mg/kg/injection, schedule: Q01DX009 (ip), vehicle: saline with Tween-80

CCCCC(=O)N(c1ccc(Nc2c3ccccc3nc3cc([N+](=O)[O-])ccc23)cc1)S(C)(=O)=O
T/C (T/C endpoint: mean survival time, dose: 3.1 mg/kg/injection, schedule: Q04DX003 (ip), vehicle: Klucel (hydroxypropylcellulose) (HPC)): 132 % of control | T/C (T/C endpoint: mean survival time, dose: 4.8 mg/kg/injection, schedule: Q04DX003 (ip), vehicle: acetone): 131 % of control | T/C (T/C endpoint: mean survival time, dose: 7.2 mg/kg/injection, schedule: Q04DX003 (ip), vehicle: acetone): 131 % of control | survivor count (T/C endpoint: mean survival time, dose: 50.0 mg/kg/injection, schedule: Q01DX009 (ip), vehicle: saline with Tween-80): 6 of 6 | T/C (T/C endpoint: mean survival time, dose: 67.0 mg/kg/injection, schedule: Q04DX003 (ip), vehicle: saline with Tween-80): 125 % of control | survivor count (T/C endpoint: mean survival time, dose: 100.0 mg/kg/injection, schedule: Q01DX009 (ip), vehicle: saline with Tween-80): 6 of 6 | survivor count (T/C endpoint: mean survival time, dose: 400.0 mg/kg/injection, schedule: Q04DX003 (ip), vehicle: saline): 6 of 6

c1cc(-c2cc3ccc(C4=NCCN4)cc3[nH]2)ccc1C1=NCCN1
T/C (T/C endpoint: mean survival time, dose: 6.25 mg/kg/injection, schedule: Q01DX009 (ip), vehicle: suspension in saline): 125 and 140 % of control | T/C (T/C endpoint: mean survival time, dose: 12.5 mg/kg/injection, schedule: Q01DX009 (ip), vehicle: suspension in saline): 134 and 139 % of control | survivor count (T/C endpoint: mean survival time, dose: 50.0 mg/kg/injection, schedule: Q01DX009 (ip), vehicle: suspension in saline): 0 of 6, 4 of 6, 5 of 6 | survivor count (T/C endpoint: mean survival time, dose: 100.0 mg/kg/injection, schedule: Q01DX009 (ip), vehicle: saline): 0 of 6 | survivor count (T/C endpoint: mean survival time, dose: 100.0 mg/kg/injection, schedule: Q01DX009 (ip), vehicle: suspension in saline): 0 of 6

CCSCCN1C(=O)C2C3CCC(O3)C2C1=O (configuration not stated)
survivor count [1]: 2 of 3

CCCCCCCCCCCCCCCC(=O)N(CCCN(C)C)CCCN(CCCN(C)C)C(=O)CCCCCCCCCCCCCCC
survivor count (T/C endpoint: mean survival time, dose: 25.0 mg/kg/injection, schedule: Q01DX009 (ip), vehicle: water): 3 of 6 | survivor count (T/C endpoint: mean survival time, dose: 50.0 mg/kg/injection, schedule: Q01DX009 (ip), vehicle: water): 3 of 6 | survivor count (T/C endpoint: mean survival time, dose: 100.0 mg/kg/injection, schedule: Q01DX009 (ip), vehicle: water): 0 of 6 | survivor count (T/C endpoint: mean survival time, dose: 200.0 mg/kg/injection, schedule: Q01DX009 (ip), vehicle: water): 0 of 6

O=C1CC(C(=O)O)C2(CCCCCC2)O1 (configuration not stated)
survivor count (T/C endpoint: median survival time, dose: 100.0 mg/kg/injection, schedule: Q04DX003 (ip), vehicle: saline with Tween-80): 3 of 3

COC1=CCC2C(=O)C=CC(=O)C2C1 (configuration not stated)
survivor count (T/C endpoint: mean survival time, dose: 400.0 mg/kg/injection, schedule: Q01DX005 (ip), vehicle: Klucel (hydroxypropylcellulose) (HPC)): 0 of 6

Nc1ncnc2c1ccn2C1OC(CO)C2[O][Sn]([c]3ccccc3)([c]3ccccc3)[O]C21 (configuration not stated)
survivor count (T/C endpoint: mean survival time, dose: 12.5 mg/kg/injection, schedule: Q01DX005 (ip), vehicle: other): 0 of 6 | survivor count (T/C endpoint: mean survival time, dose: 25.0 mg/kg/injection, schedule: Q01DX005 (ip), vehicle: other): 0 of 6 | survivor count (T/C endpoint: mean survival time, dose: 50.0 mg/kg/injection, schedule: Q01DX005 (ip), vehicle: other): 0 of 6 | survivor count (T/C endpoint: mean survival time, dose: 100.0 mg/kg/injection, schedule: Q01DX005 (ip), vehicle: other): 0 of 6 | survivor count (T/C endpoint: mean survival time, dose: 200.0 mg/kg/injection, schedule: Q01DX005 (ip), vehicle: other): 0 of 6

CCc1ccc(CC)c(CC)c1CC
survivor count [2]: 2 of 6

Cc1nc(N)nc(N)c1N1CCN(c2ccc(C(=O)NC(C(=O)O)C(=O)O)cc2)CC1
T/C (T/C endpoint: median survival time, dose: 1.88 mg/kg/injection, schedule: Q01DX005 (ip), vehicle: Klucel + Tween-80): 131 % of control | T/C (T/C endpoint: median survival time, dose: 3.75 mg/kg/injection, schedule: Q01DX005 (ip), vehicle: Klucel + Tween-80): 142 % of control | survivor count (T/C endpoint: median survival time, dose: 30.0 mg/kg/injection, schedule: Q01DX005 (ip), vehicle: Klucel + Tween-80): 6 of 6

COC(=O)c1ccccc1NCCNc1ccccc1C(=O)OC
survivor count (T/C endpoint: mean survival time, dose: 100.0 mg/kg/injection, schedule: Q04DX002 (ip), vehicle: saline with Tween-80): 3 of 3

Cn1c(=O)sc2ccccc21
survivor count [1]: 1 of 3

COc1cc2c(cc1OC)C13CCN4CC5=CCOC6CC(=O)N2C1C6C5CC43 (configuration not stated) (tested in a mixture with another compound)
survivor count (T/C endpoint: mean survival time, dose: 200.0 mg/kg/injection, schedule: Q01DX001 (ip), vehicle: saline with Tween-80): 0 of 6 | survivor count (T/C endpoint: mean survival time, dose: 200.0 mg/kg/injection, schedule: Q01DX009 (ip), vehicle: saline): 0 of 6 | survivor count (T/C endpoint: mean survival time, dose: 400.0 mg/kg/injection, schedule: Q01DX001 (ip), vehicle: saline with Tween-80): 0 of 6 | survivor count [3]: 0 of 6

CSc1ncnc2c1nnn2C1OC(COC(C)=O)C(OC(C)=O)C1OC(C)=O (configuration not stated)
T/C (T/C endpoint: mean survival time, dose: 25.0 mg/kg/injection, schedule: Q01DX009 (ip), vehicle: DMSO): 125 % of control | T/C (T/C endpoint: mean survival time, dose: 50.0 mg/kg/injection, schedule: Q01DX009 (ip), vehicle: DMSO): 135 % of control | T/C (T/C endpoint: mean survival time, dose: 100.0 mg/kg/injection, schedule: Q01DX009 (ip), vehicle: DMSO): 144 % of control [4 of 6 alive] | T/C (T/C endpoint: mean survival time, dose: 200.0 mg/kg/injection, schedule: Q01DX009 (ip), vehicle: DMSO): 147 % of control

Cc1n[nH]c2ccc(Br)cc2c1=O
survivor count [2]: 2 of 6

COc1ccc(C(O)(c2ccccc2)C(OC(C)=O)c2ccccc2)cc1 (configuration not stated)
survivor count (T/C endpoint: mean survival time, dose: 100.0 mg/kg/injection, schedule: Q04DX003 (ip), vehicle: saline with Tween-80): 6 of 6 | survivor count [4]: 6 of 6 | survivor count [2]: 6 of 6

NC(CSC(c1ccccc1)(c1ccccc1)c1cccc2ccccc12)C(=O)O (configuration not stated)
survivor count [3]: 0 of 6

C=C1CC2C=CC1C2 (configuration not stated) (tested in a mixture with another compound)
survivor count (T/C endpoint: mean survival time, dose: 161.0 mg/kg/injection, schedule: Q01DX009 (ip), vehicle: saline with Tween-80): 3 of 6 | survivor count (T/C endpoint: mean survival time, dose: 322.0 mg/kg/injection, schedule: Q01DX009 (ip), vehicle: saline with Tween-80): 0 of 6

CN(Cc1cnc2nc(N)nc(N)c2n1)c1ccc(C(=O)N[C@@H](CCC(=O)O)C(N)=O)cc1
T/C (T/C endpoint: mean survival time, dose: 12.5 mg/kg/injection, schedule: Q01DX009 (ip), vehicle: sodium bicarbonate): 125 % of control | T/C (T/C endpoint: mean survival time, dose: 25.0 mg/kg/injection, schedule: Q01DX009 (ip), vehicle: sodium bicarbonate): 134 % of control | survivor count (T/C endpoint: mean survival time, dose: 50.0 mg/kg/injection, schedule: Q01DX009 (ip), vehicle: sodium bicarbonate): 6 of 6 | survivor count (T/C endpoint: mean survival time, dose: 100.0 mg/kg/injection, schedule: Q01DX009 (ip), vehicle: sodium bicarbonate): 2 of 6 | survivor count (T/C endpoint: mean survival time, dose: 200.0 mg/kg/injection, schedule: Q01DX009 (ip), vehicle: sodium bicarbonate): 0 of 6

CCOC1(c2ccccc2)c2ccccc2C(C)(C)c2ccccc21
survivor count [4]: 6 of 6

O=C(CCl)Nc1ccccc1Cl
survivor count (T/C endpoint: mean survival time, dose: 400.0 mg/kg/injection, schedule: Q04DX003 (ip), vehicle: Klucel (hydroxypropylcellulose) (HPC)): 3 of 6

CC[C@@H](C)[C@@H]1NC(=O)C(NC(=O)C(CC(C)C)N(C)C(=O)C2CCCN2C(=O)C(C)O)C(C)OC(=O)C(Cc2ccc(OC)cc2)N(C)C(=O)C2CCCN2C(=O)C(CC(C)C)NC(=O)C(C)C(=O)C(C(C)C)OC(=O)C[C@H]1O (some centres not stated)
T/C (T/C endpoint: median survival time, dose: 20.0 micrograms/kg/injection, schedule: Q01DX009 (ip), vehicle: distilled water + alcohol): 131 % of control | survivor count (T/C endpoint: median survival time, dose: 200.0 micrograms/kg/injection, schedule: Q01DX009 (ip), vehicle: distilled water + alcohol): 5 of 6 | survivor count (T/C endpoint: median survival time, dose: 400.0 micrograms/kg/injection, schedule: Q01DX009 (ip), vehicle: distilled water + alcohol): 1 of 6

NS(=O)(=O)c1cc([N+](=O)[O-])ccc1Cl
survivor count [5]: 1 of 6

O=C(O)/C=C/C(=O)Nc1ccccc1Cl
survivor count [5]: 1 of 6
